{"sequences": {"note": "Chains of the proteins cited; added tags and fusions are not shown. Lines headed by an entry give the natural chain unless they say otherwise; changes in a name come on top.", "UniProt Q9GZV5": "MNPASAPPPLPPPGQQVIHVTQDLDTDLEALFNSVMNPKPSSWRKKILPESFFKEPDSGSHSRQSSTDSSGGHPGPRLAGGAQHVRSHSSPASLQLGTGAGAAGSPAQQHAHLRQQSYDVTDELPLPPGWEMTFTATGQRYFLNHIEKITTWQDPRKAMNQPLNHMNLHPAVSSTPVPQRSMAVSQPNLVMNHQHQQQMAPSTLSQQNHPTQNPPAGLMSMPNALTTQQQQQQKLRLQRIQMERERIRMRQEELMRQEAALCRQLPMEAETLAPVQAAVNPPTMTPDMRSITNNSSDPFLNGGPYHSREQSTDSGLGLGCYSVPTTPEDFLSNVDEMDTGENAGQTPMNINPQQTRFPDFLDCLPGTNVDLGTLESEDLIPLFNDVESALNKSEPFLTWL"}, "source": "paper PMC5823869", "key": {"[1]": {"molecular_target": "TAZ-WT-GST fusion protein (human) (UniProt Q9GZV5)", "experiment": "non-reducing SDS-PAGE with immunoblot; 1 µg of purified His-YAP2L or GST-TAZ protein with DTT (reducing SDS-PAGE, or 10 mM DTT before non-reducing SDS-PAGE); blot with anti-His-HRP or anti-YAP, or Ponceau-S staining; both purified"}, "[2]": {"molecular_target": "TAZ-3CA-GST fusion protein (human) (UniProt Q9GZV5)", "experiment": "non-reducing SDS-PAGE with immunoblot; 1 µg of purified His-YAP2L or GST-TAZ protein, sample buffer without DTT; blot with anti-His-HRP or anti-YAP, or Ponceau-S staining; both purified"}, "[3]": {"molecular_target": "FLAG-tagged TAZ-3CA (C262A, C320A and C363A) (human) (UniProt Q9GZV5)", "experiment": "non-reducing SDS-PAGE with immunoblot; cell lysates (15 µg of transfected HEK293; 30 µg of H460 for endogenous TAZ) in SDS sample buffer without DTT, 3 min at 60 °C; blot with anti-FLAG, anti-HA or anti-TAZ; series with increasing DTT run beside"}, "[4]": {"molecular_target": "TAZ-WT-GST fusion protein (human) (UniProt Q9GZV5)", "experiment": "pull-down; 5 µg of GST fusion protein added to 200 µg of precleared HEK293 lysate, 2 hr at 4 °C, glutathione sepharose 4B beads; washes in 50 mM Tris-HCl pH 7.4, 150 mM NaCl, 1 mM EDTA, 1.0% Nonidet P-40; blot with anti-FLAG; only the target purified"}, "[5]": {"molecular_target": "TAZ-WT, FLAG- or HA-tagged (human) (UniProt Q9GZV5)", "experiment": "co-IP; HEK293 cells transfected with HA- and FLAG-tagged plasmids alone or together; 1% NP-40 lysis buffer; immunoprecipitation with anti-HA, blot with anti-FLAG and anti-HA; washes with 150 mM NaCl, 1% NP-40"}}, "note": "These are yes or no findings as the source states them, for the method shown. For some assays here: Binding seen in cells or lysates may run through a third protein.", "data": [{"substance": "TAZ-WT-GST fusion protein (from UniProt Q9GZV5 1-400)", "values": [{"measurement": "binding", "setting": "[1]", "result": "no binding (condition: with 10 mM DTT)"}]}, {"substance": "TAZ-3CA-GST fusion protein (from UniProt Q9GZV5 1-400)", "values": [{"measurement": "binding", "setting": "[2]", "result": "no binding"}]}, {"substance": "FLAG-tagged TAZ-3CA (C262A, C320A and C363A) (from UniProt Q9GZV5 1-400)", "values": [{"measurement": "binding", "setting": "[3]", "result": "no binding"}, {"measurement": "binding", "setting": "[4]", "result": "no binding"}, {"measurement": "binding", "setting": "[5]", "result": "no binding"}]}]}
